What is called AC50 is the concentration at which the activity in the assay is half-maximal. A low value points to activity at low concentration.

The assay is described as follows: qHTS Assay for Lipid Storage Modulators in Drosophila S3 Cells.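 On cell number change: cells counted by Cell Tracker Red CMTPX staining in the red channel.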 Conditions: BODIPY lipid droplet fluorescence, 18-24 h; for cell number change: measured here: cell count max response, cells fed with added oleic acid. In short, it runs like this: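 Laser-scanning cytometry quantifies lipid droplet accumulation (500–530 nm total intensity; droplet/cell object ratio) in oleic acid-fed (400 uM added) Drosophila S3 cells treated with a concentration series. 20 uM Triacsin C defined 100% inhibition.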
Background: qHTS replaces the single test concentration by a dilution series.

The mark [1] stands for this setting: measured here: cell number channel AC50, cells fed with added oleic acid.
Setting [2] is: measured here: lipid fluorescence (Fed channel) AC50, cells fed with added oleic acid.

“And” between values parts separate entries of the source, which are not always exact repeats. Identical values can stand only once. The list shows a part of the results. These are further read-outs of the screen, such as a control signal, another cell line or another target. No call is given for them. Most of these compounds were active or inconclusive in the main read-out, so they are no random draw. Potencies come from curve fits of mixed quality, noted in brackets.

In the case of `O=C(CSC1=NS(=O)(=O)c2ccccc21)Nc1ccccc1`, the cell number change is -46.3%. Moreover, the half-maximal activity concentration (AC50) under setting [1] is 18.4 µM [falling, single point]. The concentration at half-maximal activity (AC50) under setting [2] was 29.1 µM [falling, single point].
Turning to `COc1ccc(-n2c(=O)[nH]cc(C(=O)Nc3ccc4c(c3)OCCO4)c2=O)cc1OC`, the cell number change was 27.6%. The half-maximal activity concentration (AC50) under setting [2] was 8.2 µM [rising, partial curve].
For `O=C(Nc1cc2c3c(c1)CC(=O)N3CCC2)c1ccccc1C(F)(F)F`, the cell number change was -11.1%.
On to `CCOc1ccc(NC(=O)Cn2sc3nc(C)cc(C)c3c2=O)cc1`, for which the cell number change was -65.1%. Under setting [2], the AC50 was 29.1 µM [falling, partial curve, poor fit].
Consider `CC(=O)N[C@@H](Cc1c[nH]c2ccccc12)C(=O)NC1CC1`, for which the cell number change was 16.7%. For the same compound, the AC50 under setting [2] was 29.1 µM [falling, single point].
On to `CCN(CC)CC(O)COCCC12CC3CC(CC(C3)C1)C2` (configuration not stated), for which the cell number change was 20.2%. Besides, the AC50 under setting [2] is 3.66 µM [falling, full curve, poor fit].
Turning to `CC(C)COc1cccc(C(=O)N(CC(=O)Nc2ccccc2C(F)(F)F)Cc2ccco2)c1`, the cell number change was -14.1%.
For the compound `O=[N+]([O-])C(=C1NCCN1)C(Cl)=C(Cl)Cl`, the cell number change is -20.3%. The half-maximal activity concentration (AC50) under setting [2] was 0.651 µM [falling, full curve, poor fit].
For the compound `CCOC(=O)c1c(NC(=O)CSc2nncs2)sc(C)c1-c1ccccc1`, the cell number change turned out to be 16.1%.
As for `Cc1cccc(CNc2ncnc3ccc(-c4ccccc4Cl)cc23)c1`, the cell number change was 6.75% and -2.14%. In addition, the AC50 under setting [1] was 0.00411 µM [falling, full curve, poor fit]. In addition, the half-maximal activity concentration (AC50) under setting [2] was 2.06 µM [falling, single point].
As for `COc1ccc(CN2C(=O)c3ccccc3C2C(=O)NCc2cccnc2)c(OC)c1` (configuration not stated), the cell number change is 25.7%.
Consider `Oc1ccc(-c2n[nH]c(=S)n2Cc2ccco2)cc1`, for which the cell number change was found to be 22.7%.
The same measure, in the same setting: in the case of `Nc1c(C(=O)NCCc2ccccc2)sc2nc(N3CCOCC3)c3c(c12)CCCC3` it was 24.5%.
In the case of `CCOC(=O)c1cnc(-c2ccccc2)nc1N`, the cell number change came out at 92.3%. Moreover, the AC50 under setting [1] is 29.1 µM [rising, single point]. For the same compound, the concentration at half-maximal activity (AC50) under setting [2] is 29.1 µM [rising, single point].
For `CCOc1ccccc1NC(=O)C(=O)CC(=O)c1ccc(OC)cc1`, the cell number change is -14.6%. Further, under setting [2], the AC50 was 32.6 µM [falling, single point].
Regarding `Cc1cccc(-c2noc(CCc3ccccc3)n2)c1`, the cell number change was found to be 3.8%.
Take `CC(C)n1nnnc1SCC(=O)Nc1ccccc1F`: the cell number change stood at 6.25%.
As to `CSc1ccc(C(=O)N2CCc3ccc(NC(=O)c4ccccn4)cc3C2)cc1`, the cell number change is -34%. Moreover, the AC50 under setting [1] is 0.00461 µM [falling, full curve, poor fit].
As to `O=C(CN1CCOCC1)Nc1nc2ccc(Cl)cc2s1`, the cell number change is -15.2%. In addition, under setting [2], the concentration at half-maximal activity (AC50) is 0.116 µM [rising, full curve, poor fit].
Take `Cc1ccc2cccc(OCC(=O)Nc3cccc(S(=O)(=O)N4CCCC4)c3)c2n1`: the cell number change was -17.5%. The AC50 under setting [2] is 0.411 µM [rising, single point].
On to `CCn1cc([N+](=O)[O-])c(C(=O)N2N=C(c3ccc(OC)cc3OC)CC2c2ccccc2O)n1` (configuration not stated), for which the cell number change is -7.3%. Further, the AC50 under setting [2] was 29.1 µM [falling, single point].
On to `Cc1c(Cl)cccc1NC(=S)NCCc1ccc(Cl)cc1`, for which the cell number change is -24.7%. Further, under setting [2], the AC50 was 20.6 µM [falling, single point].
On to `CCN(CC(=O)Nc1ccccc1C(F)(F)F)C(=O)c1oc2c(Cl)cccc2c1C`, for which the AC50 under setting [1] was 1.64 µM [rising, partial curve].
Regarding `O=C(COC(=O)c1cccc2ccccc12)Nc1ncc(C(F)(F)F)cc1Cl`, the cell number change is -89.8%. The half-maximal activity concentration (AC50) under setting [1] is 25.9 µM [falling, partial curve]. Besides, the AC50 under setting [2] is 23.1 µM [falling, partial curve].
Turning to `Cc1cc(C)c(NC(=S)N2CCC(N(C)CC3CCCO3)CC2)c(C)c1` (configuration not stated), the concentration at half-maximal activity (AC50) under setting [2] is 23.1 µM [falling, partial curve].
Turning to `Cc1cc(NC(=O)CSc2nnc(-c3ccccc3Cl)o2)no1`, the cell number change worked out at 43.6%. In addition, the AC50 under setting [1] is 25.9 µM [rising, partial curve, poor fit]. Besides, under setting [2], the concentration at half-maximal activity (AC50) is 29.1 µM [falling, single point].
For `C/C(=N\NC(=O)c1n[nH]c2c1CCC2)c1ccco1`, the cell number change was determined as 18.3%.
Take `COc1cc2c3nnc(-c4ccc(F)cc4)c-3cn(Cc3cccc(F)c3)c2cc1OC`: the cell number change is -30.7%. Also, under setting [1], the AC50 was 32.6 µM [falling, partial curve, poor fit]. In addition, the half-maximal activity concentration (AC50) under setting [2] is 32.6 µM [falling, partial curve].
With `COc1ccc(-c2cc(C)no2)cc1S(=O)(=O)N(C)c1ccc(C)c(C)c1`, the cell number change was -24.4%. Moreover, the AC50 under setting [2] is 29.1 µM [falling, single point].
For `O=C(Cc1ccc(S(=O)(=O)N2CCOCC2)s1)N1CCN(c2cccc(C(F)(F)F)c2)CC1`, the cell number change is -27.2%. Moreover, under setting [2], the AC50 is 16.4 µM [falling, single point].
For the compound `Cc1noc(C(=O)Nc2c(C)nn(Cc3ccccc3)c2C)c1Cl`, the cell number change turned out to be 5.93%. Besides, the AC50 under setting [1] was 4.61 µM [falling, single point]. Further, the AC50 under setting [2] was 5.8 µM [falling, single point].
For `COC(=O)c1ccccc1NC(=O)CCc1ccccc1`, the cell number change amounted to 32.5%. Further, under setting [1], the half-maximal activity concentration (AC50) is 10.3 µM [rising, single point]. Moreover, the half-maximal activity concentration (AC50) under setting [2] was 16.4 µM [rising, partial curve].
On to `Cc1ccc(NC(=O)Nc2ccc3c(c2)nnn3C)cc1C`, for which the cell number change is 1.94%.
For `COc1ccc(OC)c(C(C)NC(=S)Nc2ccc(S(=O)(=O)Nc3ncccn3)cc2)c1` (configuration not stated), the cell number change stood at 41.8%. In addition, the AC50 under setting [1] was 35.5 µM [rising, single point].
On to `CCOc1ccc(NC(=O)c2ccc(NCC(=O)N3CCCCCC3)cc2)cc1`, for which the cell number change was 36.9%. Under setting [1], the AC50 is 29.1 µM [rising, single point]. The AC50 under setting [2] is 23.1 µM [rising, single point].
With `C/C(=N\NC(=O)c1ccccc1C)c1cccc([N+](=O)[O-])c1`, the AC50 is 0.366 µM [rising, full curve] under setting [1] and 0.517 µM [rising, full curve] under setting [2].
As to `CC(/C=N/NC(=O)Cn1nnc(N)n1)=C\c1ccc(C(C)C)cc1`, the cell number change is -23%. Besides, the AC50 under setting [2] is 29.1 µM [falling, single point].
On to `O=C(c1ccc(F)cc1)N1CCC(N2CCOCC2)CC1`, for which the cell number change is -0.636%. Besides, the AC50 under setting [2] was 5.17 µM [falling, partial curve].
Turning to `Cc1cc(C(=O)COC(=O)Cc2n[nH]c(=O)c3ccccc23)c(C)n1-c1ccc2c(c1)OCO2`, the cell number change was found to be 0.151%. Also, the AC50 under setting [2] is 4.11 µM [rising, partial curve, poor fit].
Regarding `COc1ccc(N(C(=O)c2ccco2)C(C(=O)NC2CCCC2)c2cc(OC)c(OC)c(OC)c2)cc1` (configuration not stated), the cell number change was -35.5%. Further, under setting [1], the half-maximal activity concentration (AC50) was 3.66 µM [falling, partial curve, poor fit].
`CCOC(=O)c1ccc(NC(=O)C2CC(=O)Nc3nc4ccccc4n32)cc1` (configuration not stated): the cell number change is -52.8%. The half-maximal activity concentration (AC50) under setting [1] is 32.6 µM [falling, single point]. For the same compound, under setting [2], the AC50 is 0.116 µM [rising, full curve, poor fit].
As to `O=C(Nc1ccccc1)Nc1cccc2cccnc12`, the cell number change worked out at 4.24%. For the same compound, the AC50 under setting [2] was 0.461 µM [rising, partial curve, poor fit].
Consider `Cc1ccc(-c2nc3cnccn3c2Nc2ccccc2)o1`, for which the cell number change amounted to 11.5%. Besides, the AC50 under setting [2] is 0.146 µM [rising, full curve, poor fit].
For the compound `COc1ccc(S(=O)(=O)Nc2ccc3c(c2)OCO3)cc1Cl`, the concentration at half-maximal activity (AC50) under setting [1] was 2.31 µM [rising, partial curve].
As to `CC(C)(C)Nc1nc(Cl)nc(Nc2ccccc2)n1`, the cell number change is -18%. Also, under setting [2], the concentration at half-maximal activity (AC50) was 0.231 µM [rising, full curve, poor fit].
For the compound `COc1ccc([C@H]2CC(=O)C=C(c3ccc(OC)c(OC)c3)C2)cc1`, the cell number change was -46.7%. For the same compound, the AC50 under setting [1] was 4.61 µM [falling, full curve]. For the same compound, under setting [2], the AC50 was 5.17 µM [falling, full curve].
In the case of `CCSc1nnc(NC(=O)c2c(C)noc2C)s1`, the cell number change is -2.78%. The AC50 under setting [2] was 10 µM [falling, single point].
Regarding `CCCC[C@@H]1CNCCN1CCc1cccc2ccccc12`, the cell number change is -11.7%. Moreover, under setting [1], the concentration at half-maximal activity (AC50) was 3.26 µM [falling, single point]. Further, the concentration at half-maximal activity (AC50) under setting [2] was 0.184 µM [falling, full curve, poor fit].
Regarding `O=C1CN(S(=O)(=O)c2cc(C(=O)O)ccc2Cl)c2ccccc2N1`, the cell number change came to 6.67%.
`O=C(CSc1ccc(C(F)(F)F)cc1[N+](=O)[O-])Nc1ccccc1`: the AC50 under setting [2] was 0.731 µM [falling, partial curve, poor fit].
With `O=C(O)c1cc2c([nH]c1=O)CCCC2`, the cell number change is -37.4%. Besides, under setting [1], the AC50 was 0.013 µM [falling, full curve, poor fit]. Moreover, under setting [2], the half-maximal activity concentration (AC50) is 0.731 µM [falling, full curve].
In the case of `CC(C)Cn1c(=O)c2c(nc3n2CC(C)CN3Cc2ccccc2)n(C)c1=O` (configuration not stated), the cell number change is -18.2%. Moreover, under setting [2], the concentration at half-maximal activity (AC50) was 29.1 µM [falling, single point].
As for `COC(=O)c1ccccc1NC(=O)CSc1nnc(C(C)NC(=O)c2ccc(Cl)cc2Cl)n1C` (configuration not stated), the cell number change was 2.42%. The AC50 under setting [1] is 6.51 µM [rising, single point]. The half-maximal activity concentration (AC50) under setting [2] was 18.4 µM [rising, partial curve].
With `COc1ccc(OC)c(C(=O)CSc2nnc(-c3ccc(OC)c(OC)c3)o2)c1`, the cell number change came out at 4.06%. The concentration at half-maximal activity (AC50) under setting [2] is 0.00517 µM [falling, full curve, poor fit].
In the case of `O=C(c1cccc(Cl)c1)N(Cc1ccco1)C1CCS(=O)(=O)C1` (configuration not stated), the cell number change was 22.8%. In addition, the AC50 under setting [2] is 18.4 µM [rising, single point].
As for `Cc1ccc(SCC(=O)OC(C)C(=O)NC2(C#N)CCCCC2)cc1` (configuration not stated), the AC50 under setting [2] was 0.517 µM [rising, partial curve, poor fit].
Take `CC(C)(C)NCC(O)COCc1ccc(Cl)cc1` (configuration not stated): the cell number change is -16.5%. The half-maximal activity concentration (AC50) under setting [2] is 0.0651 µM [falling, full curve, poor fit].
With `CCOC(=O)c1ccc(-n2c(CCC(=O)O)ccc2-c2ccc(F)cc2)cc1`, the cell number change was 11.3%. The AC50 under setting [2] is 6.51 µM [rising, single point].
Regarding `O=c1cc(-c2ccccc2)c2cc(Cl)c(O)c(CN3CCOCC3)c2o1`, the cell number change was determined as 15.5%. Also, the AC50 under setting [1] was 4.11 µM [rising, single point]. Besides, the AC50 under setting [2] is 23.1 µM [rising, single point].

(Values after PubChem BioAssay AID2685 (National Center for Advancing Translational Sciences (NCATS), 2010).)
